Measured values: EP3868394A1, “MONO- AND MULTI-TRIAZOLOMINIGASTRINS FOR TARGETING OF CCK2R-POSITIVE NEOPLASMS” (PAUL SCHERRER INSTITUT, priority 2020, dated 2021)
Part of at least one peptide drawing is inferred or uncertain, most often the ends.

System: A431-CCK2R cells
Assay: Cell internalization experiments with 177Lu-labeled conjugates
Type: cell-based, Human
Method: Stock solutions were prepared by dissolving the reference substances (Nle^15]-MG11 and PP-[…]) or the triazolominigastrins (1 mg, 750 nmol) in ammonium acetate buffer (50 μL, 0.5 M, pH 5.5) and addition of water to a final peptide concentration of 250 μM (approx. 0.3 mg/mL). For in vitro experiments, DOTA-functionalized compounds (1 nmol, 4 μL of 250 μM stock solution) were added to a mixture of aq. HCl (22.5 μL, 0.05 M, pH 1.3), ammonium acetate buffer (10 μL, 0.5 M, pH 5.5) and aq. sodium ascorbate (5 μL, 0.5 M). 20-25 MBq of [^177Lu]LuCl3 (ca. 2.5 μL, in 0.04 M HCl, 20-25 MBq/nmol) were added and the mixtures were heated to 95 °C for 20 min in a heating block. After labeling, a 1 μL aliquot of the labeling mixture was added to aq. DTPA (200 μL, 25 μM) for quality control by γ-HPLC. Human epidermoid carcinoma cells A431 stably transfected to express the CCK2R (A431-CCK2R cells)[Aloj L., Journal of Nuclear Medicine, 2004, 45, 485-494] were grown in monolayers in NunclonTM Delta treated cell culture flasks in humidified air at 5% CO2 and 37 °C. The cells were maintained in the culture medium DMEM (high glucose (4.5 g/L)) supplemented with 20 mM L-Gln and 10% FCS. The culture was passaged regularly at 80 to 90% confluency using a 0.25% trypsin 0.38‰ EDTA solution. Assays were conducted in the assay medium DMEM (high glucose) containing 0.1% BSA. On the day prior to the experiment A431-CCK2R cells were placed in six-well plates (0.85·10^6 cells/well) in cell culture medium and incubated overnight for attachment. On the day of the experiment, the medium was removed and the cells were washed twice with 1 mL PBS. The plates were put on ice for preparation. 0.9 mL of assay medium was dispensed to all wells except the ones for nonspecific binding. 0.2 pmol of ^177Lu-labeled conjugates (100 μL, 2 nM in assay medium, ca. 4.2 kBq) were dispensed to all wells. For the determination of nonspecific binding, a 5000-fold excess of […] (1 nmol, 100 μL, 10 μM in assay medium) was added to 0.8 mL of assay medium containing the ^177Lu-labeled conjugates. The plates were incubated at 37 °C in 5% CO2 to allow binding and internalization. The process was stopped after 30, 60, 120, and 240 min by collection of the supernatant. The cells were washed twice with PBS (each 0.6 mL). The combined supernatants represent the free, unbound fraction of radioactivity. Membrane-bound activity was determined by incubating the cells with cold saline glycine buffer (0.6 mL, 0.05 M, pH 2.8) twice for 5 min at rt. The internalized fraction was isolated by two cycles of cell lysis with NaOH (each 0.6 mL, 1 M, 10 min, rt). The radioactivity of the fractions was measured by a COBRA-II gamma counter and is represented as percentage of total applied radioactivity dosage (n=3-5 in triplicates).

[1] = compared with PP-F11N, Figure 1
[2] = compared with [Nle^15]MG11, Figure 1

SMILES	cell internalization after 4 h [1]	cell internalization kinetics [1]	cell internalization after 4 h [2]	cell internalization kinetics [2]
CCCC[C@H](NC(=O)[C@H](Cc1c[nH]c2ccccc12)NC(=O)Cn1cc([C@H](Cc2ccc(O)cc2)NC(=O)[C@H](C)NC(=O)[C@@H](CCC(=O)O)NC(=O)[C@@H](CCC(=O)O)NC(=O)[C@@H](CCC(=O)O)NC(=O)[C@@H](CCC(=O)O)NC(=O)[C@@H](CCC(=O)O)NC(=O)[C@@H](CCC(=O)O)NC(=O)CN2CCN(CC(=O)O)CCN(CC(=O)O)CCN(CC(=O)O)CC2)nn1)C(=O)N[C@@H](CC(=O)O)C(=O)N[C@@H](Cc1ccccc1)C(N)=O [NMG 6, DOTA-(DGlu)5-DGlu-Ala-Tyr-Ψ[Tz]-Gly-Trp-Nle-Asp-Phe-NH2]	higher	faster	–	–
CCCC[C@H](NC(=O)[C@H](Cc1c[nH]c2ccccc12)NC(=O)Cn1cc([C@H](Cc2ccc(O)cc2)n2cc([C@H](C)n3cc([C@@H](CCC(=O)O)NC(=O)CN4CCN(CC(=O)O)CCN(CC(=O)O)CCN(CC(=O)O)CC4)nn3)nn2)nn1)C(=O)N[C@@H](CC(=O)O)C(=O)N[C@@H](Cc1ccccc1)C(N)=O [TZMG 876, DOTA-DGlu-Ψ[Tz]-Ala-Ψ[Tz]-Tyr-Ψ[Tz]-Gly-Trp-Nle-Asp-Phe-NH2]	–	–	higher	faster
